Results are given in words; binding and its absence hold for the method and conditions named. Binding seen in cells or lysates may run through a third protein. Some results given as binding are weak or reduced against the parent protein; the word gives no strength.
Target: Smad3 (human (endogenous in A549 and H1975)) (UniProt P84022)
Assay: co-IP; A549 and H1975 cells, with or without Linc00673-V3 knockdown; NP40 lysis buffer with protease inhibitor cocktail; pre-cleared with IgG and Protein A/G PLUS-Agarose; lysate with primary antibody at 4°C overnight; Western blot

By UniProt entry, the sequences of proteins in these tests, tags left out.
UniProt P84022: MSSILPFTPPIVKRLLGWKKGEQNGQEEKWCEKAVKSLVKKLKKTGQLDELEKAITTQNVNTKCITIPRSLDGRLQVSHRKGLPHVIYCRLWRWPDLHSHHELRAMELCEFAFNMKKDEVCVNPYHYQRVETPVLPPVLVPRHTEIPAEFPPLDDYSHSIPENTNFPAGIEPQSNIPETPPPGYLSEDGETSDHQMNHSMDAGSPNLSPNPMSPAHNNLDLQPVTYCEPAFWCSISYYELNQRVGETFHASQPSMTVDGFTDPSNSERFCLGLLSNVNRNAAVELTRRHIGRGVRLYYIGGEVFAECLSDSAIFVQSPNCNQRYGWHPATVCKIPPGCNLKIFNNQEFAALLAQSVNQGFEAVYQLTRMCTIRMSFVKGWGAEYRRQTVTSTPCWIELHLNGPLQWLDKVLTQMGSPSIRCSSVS
UniProt Q9UNE7: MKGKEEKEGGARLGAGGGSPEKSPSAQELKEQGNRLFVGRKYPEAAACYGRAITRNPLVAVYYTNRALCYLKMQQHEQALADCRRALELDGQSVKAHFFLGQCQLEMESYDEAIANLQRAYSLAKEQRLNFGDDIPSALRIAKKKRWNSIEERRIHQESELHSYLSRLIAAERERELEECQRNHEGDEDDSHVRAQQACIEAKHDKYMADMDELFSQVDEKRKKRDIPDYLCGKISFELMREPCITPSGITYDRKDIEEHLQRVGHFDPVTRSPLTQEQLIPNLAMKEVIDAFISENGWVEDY
UniProt P40337: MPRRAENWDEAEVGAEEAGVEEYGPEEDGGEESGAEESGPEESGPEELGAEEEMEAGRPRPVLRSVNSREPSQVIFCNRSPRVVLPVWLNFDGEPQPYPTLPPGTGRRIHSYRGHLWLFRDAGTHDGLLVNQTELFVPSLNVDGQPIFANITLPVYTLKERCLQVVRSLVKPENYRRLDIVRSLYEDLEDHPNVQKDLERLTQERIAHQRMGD

Substance | binding
STUB1 (from UniProt Q9UNE7 1-303) (enzyme) | binds
VHL (from UniProt P40337 1-213) | binds
